Data taken from the supplement of paper PMC10849652.
Some of the results follow.

The chains behind the UniProt entries cited, without tags or fusion partners. Where a name states a change or a piece, a line headed by the entry shows the natural chain unless it says otherwise.
UniProt P56270: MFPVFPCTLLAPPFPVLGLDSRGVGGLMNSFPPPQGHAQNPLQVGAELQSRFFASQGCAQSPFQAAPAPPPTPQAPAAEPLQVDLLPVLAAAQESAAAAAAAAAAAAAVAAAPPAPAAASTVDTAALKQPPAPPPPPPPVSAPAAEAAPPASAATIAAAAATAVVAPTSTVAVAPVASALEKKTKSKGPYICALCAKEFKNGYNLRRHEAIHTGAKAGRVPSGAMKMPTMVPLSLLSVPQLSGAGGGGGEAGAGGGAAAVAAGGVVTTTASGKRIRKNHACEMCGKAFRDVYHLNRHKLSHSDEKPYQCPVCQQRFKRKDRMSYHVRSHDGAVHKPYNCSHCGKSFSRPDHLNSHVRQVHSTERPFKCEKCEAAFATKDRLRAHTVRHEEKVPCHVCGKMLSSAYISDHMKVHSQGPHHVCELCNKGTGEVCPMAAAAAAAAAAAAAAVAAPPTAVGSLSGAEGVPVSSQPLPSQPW
UniProt Q14728: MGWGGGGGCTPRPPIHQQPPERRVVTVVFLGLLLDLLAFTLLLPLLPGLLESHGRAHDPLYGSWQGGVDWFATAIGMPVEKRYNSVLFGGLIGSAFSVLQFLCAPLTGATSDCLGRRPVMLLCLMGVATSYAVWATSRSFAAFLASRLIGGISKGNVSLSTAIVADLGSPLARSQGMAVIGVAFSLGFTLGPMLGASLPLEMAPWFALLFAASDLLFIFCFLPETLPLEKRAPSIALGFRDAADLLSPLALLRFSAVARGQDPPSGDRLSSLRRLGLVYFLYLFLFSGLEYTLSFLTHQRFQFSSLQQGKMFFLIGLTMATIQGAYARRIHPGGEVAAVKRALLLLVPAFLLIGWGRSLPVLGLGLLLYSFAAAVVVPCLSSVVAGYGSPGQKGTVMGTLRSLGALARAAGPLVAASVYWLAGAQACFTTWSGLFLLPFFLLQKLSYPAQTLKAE
UniProt Q96GW9: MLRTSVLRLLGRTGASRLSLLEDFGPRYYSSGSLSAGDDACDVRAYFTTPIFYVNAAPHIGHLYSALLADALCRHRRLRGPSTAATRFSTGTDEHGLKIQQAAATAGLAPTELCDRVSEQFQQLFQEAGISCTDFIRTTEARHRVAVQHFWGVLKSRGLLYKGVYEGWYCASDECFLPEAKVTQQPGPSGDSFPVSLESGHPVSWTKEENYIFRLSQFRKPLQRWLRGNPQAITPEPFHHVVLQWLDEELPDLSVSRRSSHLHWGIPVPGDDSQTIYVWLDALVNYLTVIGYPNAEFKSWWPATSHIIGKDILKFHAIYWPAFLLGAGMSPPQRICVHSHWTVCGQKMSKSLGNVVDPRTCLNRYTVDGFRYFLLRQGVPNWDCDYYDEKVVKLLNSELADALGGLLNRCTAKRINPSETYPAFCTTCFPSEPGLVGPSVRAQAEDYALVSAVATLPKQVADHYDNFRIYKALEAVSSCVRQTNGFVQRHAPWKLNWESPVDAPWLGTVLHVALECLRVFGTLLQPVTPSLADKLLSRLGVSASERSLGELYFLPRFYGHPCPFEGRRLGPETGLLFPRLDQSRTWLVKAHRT
UniProt P33992: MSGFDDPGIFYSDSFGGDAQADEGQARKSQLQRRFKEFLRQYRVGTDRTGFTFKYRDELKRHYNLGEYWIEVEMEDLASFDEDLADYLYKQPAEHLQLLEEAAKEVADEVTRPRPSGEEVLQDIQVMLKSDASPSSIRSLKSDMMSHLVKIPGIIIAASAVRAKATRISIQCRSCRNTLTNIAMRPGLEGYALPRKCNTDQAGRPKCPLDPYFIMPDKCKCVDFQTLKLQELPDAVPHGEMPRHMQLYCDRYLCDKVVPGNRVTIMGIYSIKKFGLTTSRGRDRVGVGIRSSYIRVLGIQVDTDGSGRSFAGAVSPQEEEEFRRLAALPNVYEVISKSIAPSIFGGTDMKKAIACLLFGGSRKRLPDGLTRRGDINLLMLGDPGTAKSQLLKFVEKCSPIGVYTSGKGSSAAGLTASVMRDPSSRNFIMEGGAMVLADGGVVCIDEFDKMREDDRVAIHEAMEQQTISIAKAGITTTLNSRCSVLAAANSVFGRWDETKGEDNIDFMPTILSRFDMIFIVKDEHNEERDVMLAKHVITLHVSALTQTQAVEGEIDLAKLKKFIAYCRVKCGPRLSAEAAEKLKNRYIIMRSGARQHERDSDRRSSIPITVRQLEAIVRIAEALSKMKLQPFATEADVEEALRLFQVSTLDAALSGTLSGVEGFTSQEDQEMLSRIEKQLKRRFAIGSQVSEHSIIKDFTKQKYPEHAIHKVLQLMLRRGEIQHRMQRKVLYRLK
UniProt Q9NZL9, whole entry, looked up: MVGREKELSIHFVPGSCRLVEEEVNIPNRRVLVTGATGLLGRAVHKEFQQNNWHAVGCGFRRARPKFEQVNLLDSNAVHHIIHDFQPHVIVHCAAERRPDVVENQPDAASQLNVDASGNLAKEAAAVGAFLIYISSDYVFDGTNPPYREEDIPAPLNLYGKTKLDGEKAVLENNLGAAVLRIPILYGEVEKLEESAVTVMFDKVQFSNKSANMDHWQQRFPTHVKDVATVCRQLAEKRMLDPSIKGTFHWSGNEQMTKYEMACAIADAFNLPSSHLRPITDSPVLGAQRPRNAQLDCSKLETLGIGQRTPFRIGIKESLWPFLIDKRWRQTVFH
UniProt O75448: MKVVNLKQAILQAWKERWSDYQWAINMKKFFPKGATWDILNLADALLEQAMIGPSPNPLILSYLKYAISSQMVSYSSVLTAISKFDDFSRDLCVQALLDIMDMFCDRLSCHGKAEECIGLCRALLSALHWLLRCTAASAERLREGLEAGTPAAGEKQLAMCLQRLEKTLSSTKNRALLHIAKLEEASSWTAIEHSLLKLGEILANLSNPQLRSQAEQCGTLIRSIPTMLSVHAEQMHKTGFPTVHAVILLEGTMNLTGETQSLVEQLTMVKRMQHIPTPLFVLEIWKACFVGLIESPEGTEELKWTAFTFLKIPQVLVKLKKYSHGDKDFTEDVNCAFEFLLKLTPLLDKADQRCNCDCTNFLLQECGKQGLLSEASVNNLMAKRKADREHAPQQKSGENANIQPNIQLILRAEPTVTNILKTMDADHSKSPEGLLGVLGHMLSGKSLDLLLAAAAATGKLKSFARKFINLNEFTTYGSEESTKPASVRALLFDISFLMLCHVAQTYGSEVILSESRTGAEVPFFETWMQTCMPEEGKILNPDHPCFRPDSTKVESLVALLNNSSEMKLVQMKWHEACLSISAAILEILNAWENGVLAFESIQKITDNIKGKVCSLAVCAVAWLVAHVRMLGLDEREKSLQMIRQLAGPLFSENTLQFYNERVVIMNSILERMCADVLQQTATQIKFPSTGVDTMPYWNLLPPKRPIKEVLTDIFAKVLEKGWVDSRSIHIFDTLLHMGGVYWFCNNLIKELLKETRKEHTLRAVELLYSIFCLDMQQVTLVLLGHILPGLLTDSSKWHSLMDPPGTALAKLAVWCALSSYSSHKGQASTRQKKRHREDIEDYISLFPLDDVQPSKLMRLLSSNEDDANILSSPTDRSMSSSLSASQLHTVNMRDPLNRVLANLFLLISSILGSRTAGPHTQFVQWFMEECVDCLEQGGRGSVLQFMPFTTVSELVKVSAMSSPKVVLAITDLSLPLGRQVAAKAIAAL
UniProt P51608, whole entry, looked up: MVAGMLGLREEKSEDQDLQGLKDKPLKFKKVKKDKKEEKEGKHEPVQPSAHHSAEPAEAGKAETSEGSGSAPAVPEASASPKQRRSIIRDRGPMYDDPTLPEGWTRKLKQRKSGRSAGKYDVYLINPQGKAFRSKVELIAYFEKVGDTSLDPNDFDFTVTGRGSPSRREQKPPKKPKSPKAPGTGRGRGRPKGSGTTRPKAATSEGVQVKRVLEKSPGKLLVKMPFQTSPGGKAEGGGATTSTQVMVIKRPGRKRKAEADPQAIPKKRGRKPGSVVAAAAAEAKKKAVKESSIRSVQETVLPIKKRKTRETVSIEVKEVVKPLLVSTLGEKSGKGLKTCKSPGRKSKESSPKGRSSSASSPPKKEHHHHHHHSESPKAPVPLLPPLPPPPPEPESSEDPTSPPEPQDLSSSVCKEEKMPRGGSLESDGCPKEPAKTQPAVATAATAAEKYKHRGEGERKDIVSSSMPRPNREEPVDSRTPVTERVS
UniProt Q9NPJ6: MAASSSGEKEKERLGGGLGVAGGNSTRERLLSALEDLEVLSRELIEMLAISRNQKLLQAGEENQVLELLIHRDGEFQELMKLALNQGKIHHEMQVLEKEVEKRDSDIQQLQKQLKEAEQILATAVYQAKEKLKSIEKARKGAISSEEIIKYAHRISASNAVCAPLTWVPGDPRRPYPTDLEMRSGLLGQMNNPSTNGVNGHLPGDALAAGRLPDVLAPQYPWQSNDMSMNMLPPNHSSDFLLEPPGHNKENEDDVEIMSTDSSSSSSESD
UniProt Q9UQ53: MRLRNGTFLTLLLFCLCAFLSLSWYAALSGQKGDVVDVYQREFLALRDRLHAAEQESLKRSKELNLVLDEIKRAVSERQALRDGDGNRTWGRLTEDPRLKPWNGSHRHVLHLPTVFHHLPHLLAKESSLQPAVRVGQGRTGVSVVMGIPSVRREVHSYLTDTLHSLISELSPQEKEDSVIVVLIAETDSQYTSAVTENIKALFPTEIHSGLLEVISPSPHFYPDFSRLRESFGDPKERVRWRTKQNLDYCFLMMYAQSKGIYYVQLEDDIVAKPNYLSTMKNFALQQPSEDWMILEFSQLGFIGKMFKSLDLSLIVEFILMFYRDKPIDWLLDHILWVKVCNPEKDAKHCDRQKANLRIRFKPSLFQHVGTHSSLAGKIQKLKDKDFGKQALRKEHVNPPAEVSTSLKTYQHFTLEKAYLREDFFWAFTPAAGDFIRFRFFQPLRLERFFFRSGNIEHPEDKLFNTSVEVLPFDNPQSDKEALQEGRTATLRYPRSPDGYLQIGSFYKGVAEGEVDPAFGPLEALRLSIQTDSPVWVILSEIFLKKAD
UniProt P26572: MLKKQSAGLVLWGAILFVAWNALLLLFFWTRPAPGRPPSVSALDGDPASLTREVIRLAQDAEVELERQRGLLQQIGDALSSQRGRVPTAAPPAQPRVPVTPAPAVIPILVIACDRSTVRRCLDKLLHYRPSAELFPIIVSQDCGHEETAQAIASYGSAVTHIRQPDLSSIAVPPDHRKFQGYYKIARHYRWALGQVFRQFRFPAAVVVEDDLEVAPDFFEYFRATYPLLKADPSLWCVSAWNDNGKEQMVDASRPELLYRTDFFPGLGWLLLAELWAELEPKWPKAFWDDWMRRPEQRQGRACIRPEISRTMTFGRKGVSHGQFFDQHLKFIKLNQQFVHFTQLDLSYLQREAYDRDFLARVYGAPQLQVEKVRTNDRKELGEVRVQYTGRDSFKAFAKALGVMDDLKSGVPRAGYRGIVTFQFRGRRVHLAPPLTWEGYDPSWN
UniProt Q9NRN9: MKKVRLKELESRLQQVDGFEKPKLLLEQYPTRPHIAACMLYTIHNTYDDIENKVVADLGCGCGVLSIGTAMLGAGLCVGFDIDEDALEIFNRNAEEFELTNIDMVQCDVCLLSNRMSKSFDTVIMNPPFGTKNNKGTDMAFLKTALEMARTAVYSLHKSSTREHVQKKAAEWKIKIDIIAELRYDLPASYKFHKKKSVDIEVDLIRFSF
UniProt P49736, whole entry, looked up: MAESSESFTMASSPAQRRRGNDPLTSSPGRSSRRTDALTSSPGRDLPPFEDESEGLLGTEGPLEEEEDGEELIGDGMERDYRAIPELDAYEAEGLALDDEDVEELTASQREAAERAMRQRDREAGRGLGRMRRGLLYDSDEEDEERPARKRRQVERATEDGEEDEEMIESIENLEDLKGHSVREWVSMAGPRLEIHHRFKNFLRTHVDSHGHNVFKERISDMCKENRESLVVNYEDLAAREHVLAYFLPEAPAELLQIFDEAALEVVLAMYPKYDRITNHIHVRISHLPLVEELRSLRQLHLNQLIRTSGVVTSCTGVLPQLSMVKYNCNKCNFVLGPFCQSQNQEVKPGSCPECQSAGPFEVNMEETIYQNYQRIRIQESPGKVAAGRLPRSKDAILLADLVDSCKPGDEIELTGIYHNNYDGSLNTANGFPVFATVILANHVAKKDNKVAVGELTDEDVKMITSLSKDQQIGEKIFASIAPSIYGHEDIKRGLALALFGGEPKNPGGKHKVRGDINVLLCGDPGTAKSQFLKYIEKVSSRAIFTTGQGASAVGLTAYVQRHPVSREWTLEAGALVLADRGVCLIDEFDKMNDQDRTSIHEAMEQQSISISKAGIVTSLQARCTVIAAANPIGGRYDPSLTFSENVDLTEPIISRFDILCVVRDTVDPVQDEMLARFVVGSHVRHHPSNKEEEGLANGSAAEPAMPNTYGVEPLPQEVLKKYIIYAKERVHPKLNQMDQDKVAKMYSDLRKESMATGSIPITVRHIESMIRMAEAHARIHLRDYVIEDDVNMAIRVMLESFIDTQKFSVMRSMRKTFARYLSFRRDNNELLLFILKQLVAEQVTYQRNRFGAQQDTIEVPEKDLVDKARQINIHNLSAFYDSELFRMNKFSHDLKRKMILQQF

Legend:
Assay in all cases: log2 fold change, soluble protein after heating vs DMSO (PISA); higher = thermal stabilisation; K562 cells, 10 uM, 30 min; active = over 0.2 and 3.5 SD of the protein, either way, in both replicates (recomputed)
[1] = compound: COC1=CC=C(C=C1)CN2C=CC3=C2C=C(C=C3)C(=O)NO
Outline: (§1)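 K562 cells at 2×10^6 cells/mL were treated with 10 μM compound for 30 min. Aliquots were heated for 3 min across 48°C-58°C, pooled, and extracted in PBS with 0.5% NP-40 at 4°C; soluble protein was the supernatant after 21,000xg for 90 min. Soluble protein was quantified by TMTpro 16plex LC-MS/MS with channel sums equalised, and reported as log2 fold change in thermal stability against DMSO controls, with values from duplicates.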

filanesib = compound: CON(C)C(=O)N1N=C(c2cc(F)ccc2F)S[C@@]1(CCCN)c1ccccc1 [filanesib]
Outline: as §1

zotarolimus = compound: CO[C@H]1C[C@@H]2CC[C@@H](C)[C@@](O)(O2)C(=O)C(=O)N2CCCC[C@H]2C(=O)O[C@H]([C@H](C)C[C@@H]2CC[C@H](n3cnnn3)[C@H](OC)C2)CC(=O)[C@H](C)/C=C(\C)[C@@H](O)[C@@H](OC)C(=O)[C@H](C)C[C@H](C)/C=C/C=C/C=C/1C [zotarolimus]
Outline: as §1

idasanutlin = compound: COc1cc(C(=O)O)ccc1NC(=O)[C@@H]1N[C@@H](CC(C)(C)C)[C@](C#N)(c2ccc(Cl)cc2F)[C@H]1c1cccc(Cl)c1F [idasanutlin]
Outline: as §1

alisertib = compound: COc1cc(Nc2ncc3c(n2)-c2ccc(Cl)cc2C(c2c(F)cccc2OC)=NC3)ccc1C(=O)O [alisertib]
Outline: as §1

[2] = compound: COc1cc2nc(-c3cc(F)ccc3O)nc(N[C@@H]3CNC[C@H]3C(C)(C)O)c2cc1OC
Outline: as §1

gefitinib = compound: COc1cc2ncnc(Nc3ccc(F)c(Cl)c3)c2cc1OCCCN1CCOCC1 [gefitinib]
Outline: as §1

[3] = compound: COc1cccc2cc(-c3nc([C@H]4CC[C@H](C(=O)O)CC4)n4ncnc(N)c34)[nH]c12
Outline: as §1

lapatinib = compound: CS(=O)(=O)CCNCc1ccc(-c2ccc3ncnc(Nc4ccc(OCc5cccc(F)c5)c(Cl)c4)c3c2)o1 [lapatinib]
Outline: as §1

pictilisib = compound: CS(=O)(=O)N1CCN(Cc2cc3nc(-c4cccc5[nH]ncc45)nc(N4CCOCC4)c3s2)CC1 [pictilisib]
Outline: as §1

[4] = compound: CS(=O)(=O)c1ccc(-c2cnc(N)c(C(=O)Nc3ccccc3)n2)cc1
Outline: as §1

crizotinib = compound: C[C@@H](Oc1cc(-c2cnn(C3CCNCC3)c2)cnc1N)c1c(Cl)ccc(F)c1Cl [crizotinib]
Outline: as §1

[5] = compound: C[C@@H]1COCCN1C2=NC(=NC(=C2)C3(CC3)S(=O)(=O)C)C4=C5C=CNC5=CC=C4
Outline: as §1

[6] = compound: C[C@H](C1=CC=C(C=C1)C(=O)NC2=C3C=CNC3=NC=C2)N
Outline: as §1

duvelisib = compound: C[C@H](Nc1ncnc2nc[nH]c12)c1cc2cccc(Cl)c2c(=O)n1-c1ccccc1 [duvelisib]
Outline: as §1

gandotinib = compound: Cc1cc(Nc2cc(CN3CCOCC3)c3nc(C)c(Cc4ccc(Cl)cc4F)n3n2)n[nH]1 [gandotinib]
Outline: as §1

tozasertib = compound: Cc1cc(Nc2cc(N3CCN(C)CC3)nc(Sc3ccc(NC(=O)C4CC4)cc3)n2)n[nH]1 [tozasertib]
Outline: as §1

[7] = compound: Cc1cc(SCc2sc(-c3ccc(C(F)(F)F)cc3)nc2C)ccc1OCC(=O)O
Outline: as §1

doramapimod = compound: Cc1ccc(-n2nc(C(C)(C)C)cc2NC(=O)Nc2ccc(OCCN3CCOCC3)c3ccccc23)cc1 [doramapimod]
Outline: as §1

ispinesib = compound: Cc1ccc(C(=O)N(CCCN)[C@@H](c2nc3cc(Cl)ccc3c(=O)n2Cc2ccccc2)C(C)C)cc1 [ispinesib]
Outline: as §1

Measured: log2 fold change

MAZ isoform 2 (UniProt P56270)
inactive: [1] 0 | filanesib 0.189 | zotarolimus -0.038 | idasanutlin 0.11 | alisertib -0.201 | [2] -0.049 | gefitinib -0.042 | [3] -0.275 | lapatinib 0.048 | pictilisib 0.002 | [4] -0.104 | crizotinib 0.272 | [5] -0.392 | [6] 0.058 | duvelisib -0.051 | gandotinib 0.118 | tozasertib 0.029 | [7] -0.007 | doramapimod 0.098 | ispinesib -0.017

MFSD10 (UniProt Q14728)
inactive: [1] -0.114 | filanesib 0.042 | zotarolimus -0.051 | idasanutlin 0.057 | alisertib 0.028 | [2] 0 | gefitinib 0.068 | [3] 0.029 | lapatinib 0.104 | pictilisib 0.162 | [4] 0.038 | crizotinib -0.011 | [5] 0.06 | [6] -0.004 | duvelisib 0.125 | gandotinib 0 | tozasertib -0.002 | [7] 0.102 | doramapimod 0.059 | ispinesib -0.01

MARS2 (UniProt Q96GW9)
inactive: [1] -0.017 | filanesib -0.027 | zotarolimus -0.023 | idasanutlin -0.008 | alisertib -0.1 | [2] 0.002 | gefitinib 0.01 | [3] 0.043 | lapatinib 0.01 | pictilisib -0.072 | [4] 0.01 | crizotinib 0.038 | [5] -0.007 | [6] 0.009 | duvelisib 0.076 | gandotinib 0.036 | tozasertib -0.001 | [7] -0.056 | doramapimod -0.01 | ispinesib 0.027

MCM5 (UniProt P33992)
inactive: [1] 0.039 | filanesib -0.054 | zotarolimus 0.016 | idasanutlin -0.055 | alisertib -0.053 | [2] -0.026 | gefitinib -0.004 | [3] 0.008 | lapatinib 0.042 | pictilisib -0.005 | [4] 0.013 | crizotinib -0.004 | [5] 0.025 | [6] -0.071 | duvelisib 0 | gandotinib -0.046 | tozasertib 0.022 | [7] 0.006 | doramapimod -0.006 | ispinesib 0.056

MED14 (UniProt O60244)
inactive: [1] 0.01 | filanesib 0.05 | zotarolimus 0.063 | idasanutlin 0.097 | alisertib -0.017 | [2] -0.066 | gefitinib 0.091 | [3] -0.06 | lapatinib 0.03 | pictilisib 0.036 | [4] 0.075 | crizotinib -0.065 | [5] 0.024 | [6] -0.023 | duvelisib 0.021 | gandotinib -0.05 | tozasertib -0.05 | [7] 0.143 | doramapimod 0.005 | ispinesib -0.165

MAT2B (UniProt Q9NZL9)
inactive: [1] -0.01 | filanesib -0.013 | zotarolimus -0.039 | idasanutlin -0.051 | alisertib -0.04 | [2] 0.044 | gefitinib -0.003 | [3] 0.074 | lapatinib -0.073 | pictilisib 0.013 | [4] 0.031 | crizotinib 0.029 | [5] 0.05 | [6] -0.012 | duvelisib 0.027 | gandotinib 0.028 | tozasertib -0.002 | [7] -0.072 | doramapimod 0.007 | ispinesib 0

Reprinted from the results shown (2 entries):
MCM5 (UniProt P33992)
inactive: [1] 0.039 | filanesib -0.054 | zotarolimus 0.016 | idasanutlin -0.055 | alisertib -0.053 | [2] -0.026 | gefitinib -0.004 | [3] 0.008 | lapatinib 0.042 | pictilisib -0.005 | [4] 0.013 | crizotinib -0.004 | [5] 0.025 | [6] -0.071 | duvelisib 0 | gandotinib -0.046 | tozasertib 0.022 | [7] 0.006 | doramapimod -0.006 | ispinesib 0.056

MED14 (UniProt O60244)
inactive: [1] 0.01 | filanesib 0.05 | zotarolimus 0.063 | idasanutlin 0.097 | alisertib -0.017 | [2] -0.066 | gefitinib 0.091 | [3] -0.06 | lapatinib 0.03 | pictilisib 0.036 | [4] 0.075 | crizotinib -0.065 | [5] 0.024 | [6] -0.023 | duvelisib 0.021 | gandotinib -0.05 | tozasertib -0.05 | [7] 0.143 | doramapimod 0.005 | ispinesib -0.165

(next part)

MED24 (UniProt O75448)
inactive: [1] 0.056 | filanesib -0.006 | zotarolimus 0.068 | idasanutlin 0.017 | alisertib -0.033 | [2] -0.1 | gefitinib 0.111 | [3] 0.031 | lapatinib 0.042 | pictilisib 0.095 | [4] -0.051 | crizotinib -0.069 | [5] 0.027 | [6] 0.051 | duvelisib -0.015 | gandotinib -0.236 | tozasertib 0.003 | [7] -0.007 | doramapimod 0.055 | ispinesib -0.143

MECP2 isoform 2 (UniProt P51608)
inactive: [1] -0.1 | filanesib 0.257 | zotarolimus 0.027 | idasanutlin 0.171 | alisertib -0.134 | [2] -0.04 | gefitinib 0.057 | [3] -0.188 | lapatinib 0.092 | pictilisib -0.032 | [4] 0.014 | crizotinib 0.073 | [5] -0.403 | [6] 0.331 | duvelisib -0.11 | gandotinib 0.21 | tozasertib 0.024 | [7] -0.037 | doramapimod 0.176 | ispinesib -0.158

MCRIP1 (UniProt I3L4Q0)
inactive: [1] -0.009 | filanesib 0.025 | zotarolimus 0 | idasanutlin 0.045 | alisertib 0.042 | [2] 0.013 | gefitinib -0.023 | [3] 0.06 | lapatinib -0.174 | pictilisib 0.03 | [4] 0.002 | crizotinib 0.037 | [5] 0.036 | [6] -0.023 | duvelisib 0.073 | gandotinib -0.018 | tozasertib 0.061 | [7] -0.018 | doramapimod -0.014 | ispinesib -0.066

MESD (UniProt Q14696)
inactive: [1] -0.047 | filanesib 0.005 | zotarolimus -0.025 | idasanutlin -0.008 | alisertib -0.018 | [2] 0.024 | gefitinib 0.024 | [3] 0.016 | lapatinib -0.014 | pictilisib -0.016 | [4] -0.016 | crizotinib 0.095 | [5] -0.001 | [6] -0.012 | duvelisib -0.038 | gandotinib -0.027 | tozasertib 0.011 | [7] -0.041 | doramapimod 0.003 | ispinesib 0.016

MED4 (UniProt Q9NPJ6)
inactive: [1] 0.058 | filanesib 0.04 | zotarolimus 0.065 | idasanutlin 0.039 | alisertib -0.068 | [2] -0.02 | gefitinib -0.032 | [3] 0.032 | lapatinib 0.009 | pictilisib 0.061 | [4] -0.051 | crizotinib 0.031 | [5] -0.024 | [6] -0.041 | duvelisib 0.026 | gandotinib -0.081 | tozasertib 0.007 | [7] 0.025 | doramapimod 0.004 | ispinesib 0.004

MGAT4B isoform 3 (UniProt Q9UQ53)
inactive: [1] -0.134 | filanesib 0.046 | zotarolimus -0.012 | idasanutlin 0.013 | alisertib 0.055 | [2] 0.13 | gefitinib -0.023 | [3] 0.004 | lapatinib 0 | pictilisib -0.053 | [4] 0.013 | crizotinib -0.018 | [5] 0.028 | [6] 0.093 | duvelisib 0.022 | gandotinib -0.001 | tozasertib -0.054 | [7] -0.037 | doramapimod 0.042 | ispinesib 0.042

MCAM (UniProt P43121)
inactive: [1] 0.012 | filanesib 0.03 | zotarolimus -0.056 | idasanutlin -0.011 | alisertib -0.019 | [2] -0.003 | gefitinib 0.031 | [3] 0.074 | lapatinib 0.014 | pictilisib 0.143 | [4] 0.038 | crizotinib 0.065 | [5] 0.06 | [6] -0.072 | duvelisib 0.026 | gandotinib -0.03 | tozasertib -0.072 | [7] -0.063 | doramapimod 0.002 | ispinesib 0.058

MGAT1 (UniProt P26572)
inactive: [1] 0.034 | filanesib 0.007 | zotarolimus -0.034 | idasanutlin -0.002 | alisertib -0.058 | [2] 0.037 | gefitinib 0.029 | [3] 0.015 | lapatinib 0.009 | pictilisib 0.004 | [4] 0.038 | crizotinib 0.067 | [5] -0.035 | [6] 0.036 | duvelisib 0.011 | gandotinib 0.018 | tozasertib 0.009 | [7] 0.037 | doramapimod 0.052 | ispinesib 0.057

METTL5 (UniProt Q9NRN9)
inactive: [1] -0.033 | filanesib -0.025 | zotarolimus -0.043 | idasanutlin -0.041 | alisertib -0.073 | [2] 0.023 | gefitinib 0.003 | [3] 0.075 | lapatinib 0.044 | pictilisib 0.035 | [4] 0.011 | crizotinib 0.01 | [5] 0.039 | [6] -0.061 | duvelisib 0.022 | gandotinib 0.036 | tozasertib -0.013 | [7] -0.022 | doramapimod -0.015 | ispinesib 0.012

MCM2 (UniProt P49736)
inactive: [1] 0.058 | filanesib -0.065 | zotarolimus 0.028 | idasanutlin -0.07 | alisertib -0.062 | [2] 0.044 | gefitinib 0.002 | [3] 0.016 | lapatinib -0.044 | pictilisib 0.01 | [4] 0.011 | crizotinib -0.02 | [5] 0.075 | [6] -0.072 | duvelisib 0.005 | gandotinib -0.126 | tozasertib 0.006 | [7] 0.011 | doramapimod 0.011 | ispinesib 0.004
